Laboratory results published in the supplement of paper PMC11438910.
This is one part of the list. Most of these values are background signal.

Experiments:
Test in all cases: fluorescence intensity of antibody binding to polysaccharide-coupled beads; higher = stronger binding
[1] = target: pneumococcal polysaccharide Pn10A
[2] = target: pneumococcal polysaccharide Pn10B
[3] = target: pneumococcal polysaccharide Pn10C
[4] = target: pneumococcal polysaccharide Pn10F
[5] = target: pneumococcal polysaccharide Pn11A
[6] = target: pneumococcal polysaccharide Pn11B
[7] = target: pneumococcal polysaccharide Pn11C
[8] = target: pneumococcal polysaccharide Pn11D
[9] = target: pneumococcal polysaccharide Pn11F
[10] = target: pneumococcal polysaccharide Pn12A
[11] = target: pneumococcal polysaccharide Pn12B
[12] = target: pneumococcal polysaccharide Pn12F
[13] = target: pneumococcal polysaccharide Pn13
[14] = target: pneumococcal polysaccharide Pn14
[15] = target: pneumococcal polysaccharide Pn15A
[16] = target: pneumococcal polysaccharide Pn15B
[17] = target: pneumococcal polysaccharide Pn15C
[18] = target: pneumococcal polysaccharide Pn15F
[19] = target: pneumococcal polysaccharide Pn16A
[20] = target: pneumococcal polysaccharide Pn16F
[21] = target: pneumococcal polysaccharide Pn17A
[22] = target: pneumococcal polysaccharide Pn17F
[23] = target: pneumococcal polysaccharide Pn18A
[24] = target: pneumococcal polysaccharide Pn18B
[25] = antibody concentration 2337.65 ng/mL
[26] = antibody concentration 12500 ng/mL
[27] = antibody concentration 0.1 ng/mL
[28] = antibody concentration 0.534724 ng/mL
[29] = antibody concentration 2.8593 ng/mL
[30] = antibody concentration 15.2894 ng/mL
[31] = antibody concentration 81.7561 ng/mL
[32] = antibody concentration 437.17 ng/mL

B1: 4-99.1 (protein)
chain 1: QVQLQESGPGLVKPSETLSLTCAVSGDSISSGYFWGWIRQPPGKGLEYIGYISGESGNTYDNPSLKSRVTISKDTSKNQFSLNLRSVTAADTAVYYCARRTVYIGFDYWGQGVLVTVSS
chain 2: QAAPTQPPSVSGSPGQSVTISCTGTSSDIGYYNAVSWYQQHPGKAPKLMIYEVSKRPSGVSDRFSGSKSGTTASLTISGLQAEDEADYYCSSYAGTNTYIFGAGTRLTVL
In the case of B1, the fluorescence intensity [1, 25] is reported as 30.5 MFI, the fluorescence intensity [1, 26] is reported as 72 MFI and the fluorescence intensity [2, 27] is reported as 24.5 MFI. It also gave a fluorescence intensity [2, 28] of 24 MFI, a fluorescence intensity [2, 29] of 25.5 MFI and a fluorescence intensity [2, 30] of 22.5 MFI. For the same binder, the fluorescence intensity [2, 31] was 22.5 MFI, the fluorescence intensity [2, 32] was 24.5 MFI and the fluorescence intensity [2, 25] was 26.5 MFI. For the same binder, the fluorescence intensity [2, 26] was 38.5 MFI, the fluorescence intensity [3, 27] was 17 MFI and the fluorescence intensity [3, 28] was 16.5 MFI. It also gave a fluorescence intensity [3, 29] of 16.5 MFI, a fluorescence intensity [3, 30] of 17 MFI and a fluorescence intensity [3, 31] of 18 MFI. It also gave a fluorescence intensity [3, 32] of 17.2 MFI, a fluorescence intensity [3, 25] of 19.5 MFI and a fluorescence intensity [3, 26] of 30.5 MFI. It also gave a fluorescence intensity [4, 27] of 21 MFI, a fluorescence intensity [4, 28] of 20 MFI and a fluorescence intensity [4, 29] of 20.5 MFI. For the same binder, the fluorescence intensity [4, 30] was 20 MFI, the fluorescence intensity [4, 31] was 20 MFI and the fluorescence intensity [4, 32] was 20.5 MFI. For the same binder, the fluorescence intensity [4, 25] was 22 MFI, the fluorescence intensity [4, 26] was 25.5 MFI and the fluorescence intensity [5, 27] was 27.5 MFI. It also gave a fluorescence intensity [5, 28] of 26.5 MFI, a fluorescence intensity [5, 29] of 30.2 MFI and a fluorescence intensity [5, 30] of 29.8 MFI. It also gave a fluorescence intensity [5, 31] of 30.8 MFI, a fluorescence intensity [5, 32] of 32.2 MFI and a fluorescence intensity [5, 25] of 39.2 MFI. It also gave a fluorescence intensity [5, 26] of 49.5 MFI, a fluorescence intensity [6, 27] of 27.2 MFI and a fluorescence intensity [6, 28] of 28.5 MFI. For the same binder, the fluorescence intensity [6, 29] was 26 MFI, the fluorescence intensity [6, 30] was 27.5 MFI and the fluorescence intensity [6, 31] was 27.5 MFI. It also gave a fluorescence intensity [6, 32] of 27.8 MFI, a fluorescence intensity [6, 25] of 32.5 MFI and a fluorescence intensity [6, 26] of 39.5 MFI. For the same binder, the fluorescence intensity [7, 27] was 22.5 MFI, the fluorescence intensity [7, 28] was 22 MFI and the fluorescence intensity [7, 29] was 22.8 MFI. It also gave a fluorescence intensity [7, 30] of 20.5 MFI, a fluorescence intensity [7, 31] of 22.5 MFI and a fluorescence intensity [7, 32] of 25 MFI. The fluorescence intensity [7, 25] was 46.5 MFI, the fluorescence intensity [7, 26] was 282 MFI and the fluorescence intensity [8, 27] was 24 MFI. It also gave a fluorescence intensity [8, 28] of 22.5 MFI, a fluorescence intensity [8, 29] of 22.5 MFI and a fluorescence intensity [8, 30] of 23.5 MFI. For the same binder, the fluorescence intensity [8, 31] was 23 MFI, the fluorescence intensity [8, 32] was 24.5 MFI and the fluorescence intensity [8, 25] was 34.5 MFI. The fluorescence intensity [8, 26] was 128 MFI, the fluorescence intensity [9, 27] was 15 MFI and the fluorescence intensity [9, 28] was 16 MFI. For the same binder, the fluorescence intensity [9, 29] was 13.5 MFI, the fluorescence intensity [9, 30] was 12.5 MFI and the fluorescence intensity [9, 31] was 14.8 MFI. For the same binder, the fluorescence intensity [9, 32] was 14 MFI, the fluorescence intensity [9, 25] was 15.5 MFI and the fluorescence intensity [9, 26] was 28.5 MFI. It also gave a fluorescence intensity [10, 27] of 14.5 MFI, a fluorescence intensity [10, 28] of 16.5 MFI and a fluorescence intensity [10, 29] of 15.5 MFI. It also gave a fluorescence intensity [10, 30] of 15.5 MFI, a fluorescence intensity [10, 31] of 15 MFI and a fluorescence intensity [10, 32] of 15.5 MFI. The fluorescence intensity [10, 25] was 21 MFI, the fluorescence intensity [10, 26] was 43.5 MFI and the fluorescence intensity [11, 27] was 15.5 MFI. The fluorescence intensity [11, 28] was 16 MFI, the fluorescence intensity [11, 29] was 15.5 MFI and the fluorescence intensity [11, 30] was 15.5 MFI. For the same binder, the fluorescence intensity [11, 31] was 16 MFI, the fluorescence intensity [11, 32] was 16 MFI and the fluorescence intensity [11, 25] was 20.5 MFI. It also gave a fluorescence intensity [11, 26] of 46 MFI, a fluorescence intensity [12, 27] of 19 MFI and a fluorescence intensity [12, 28] of 18.8 MFI. It also gave a fluorescence intensity [12, 29] of 18.8 MFI, a fluorescence intensity [12, 30] of 19.5 MFI and a fluorescence intensity [12, 31] of 18.5 MFI. For the same binder, the fluorescence intensity [12, 32] was 19 MFI, the fluorescence intensity [12, 25] was 25.5 MFI and the fluorescence intensity [12, 26] was 91 MFI. For the same binder, the fluorescence intensity [13, 27] was 20 MFI, the fluorescence intensity [13, 28] was 18.5 MFI and the fluorescence intensity [13, 29] was 19.5 MFI. The fluorescence intensity [13, 30] was 19.5 MFI, the fluorescence intensity [13, 31] was 20 MFI and the fluorescence intensity [13, 32] was 19 MFI. It also gave a fluorescence intensity [13, 25] of 21 MFI, a fluorescence intensity [13, 26] of 47.8 MFI and a fluorescence intensity [14, 27] of 14.5 MFI. The fluorescence intensity [14, 28] was 16 MFI, the fluorescence intensity [14, 29] was 15.5 MFI and the fluorescence intensity [14, 30] was 15.5 MFI. It also gave a fluorescence intensity [14, 31] of 16 MFI, a fluorescence intensity [14, 32] of 18.5 MFI and a fluorescence intensity [14, 25] of 41.5 MFI. For the same binder, the fluorescence intensity [14, 26] was 404 MFI, the fluorescence intensity [15, 27] was 13.5 MFI and the fluorescence intensity [15, 28] was 14 MFI. For the same binder, the fluorescence intensity [15, 29] was 14 MFI, the fluorescence intensity [15, 30] was 13 MFI and the fluorescence intensity [15, 31] was 13 MFI. It also gave a fluorescence intensity [15, 32] of 14.5 MFI, a fluorescence intensity [15, 25] of 13.5 MFI and a fluorescence intensity [15, 26] of 19.2 MFI. The fluorescence intensity [16, 27] was 17.5 MFI, the fluorescence intensity [16, 28] was 20 MFI and the fluorescence intensity [16, 29] was 18.5 MFI. The fluorescence intensity [16, 30] was 18.5 MFI, the fluorescence intensity [16, 31] was 18 MFI and the fluorescence intensity [16, 32] was 23.5 MFI. For the same binder, the fluorescence intensity [16, 25] was 25.5 MFI, the fluorescence intensity [16, 26] was 28.5 MFI and the fluorescence intensity [17, 27] was 17.5 MFI. For the same binder, the fluorescence intensity [17, 28] was 17.5 MFI, the fluorescence intensity [17, 29] was 17 MFI and the fluorescence intensity [17, 30] was 18.5 MFI. It also gave a fluorescence intensity [17, 31] of 16.5 MFI, a fluorescence intensity [17, 32] of 18.2 MFI and a fluorescence intensity [17, 25] of 23 MFI. The fluorescence intensity [17, 26] was 30 MFI, the fluorescence intensity [18, 27] was 18.5 MFI and the fluorescence intensity [18, 28] was 16.8 MFI. The fluorescence intensity [18, 29] was 18.2 MFI, the fluorescence intensity [18, 30] was 17 MFI and the fluorescence intensity [18, 31] was 17 MFI. It also gave a fluorescence intensity [18, 32] of 17.5 MFI, a fluorescence intensity [18, 25] of 21 MFI and a fluorescence intensity [18, 26] of 33.5 MFI. The fluorescence intensity [19, 27] was 15 MFI, the fluorescence intensity [19, 28] was 15.2 MFI and the fluorescence intensity [19, 29] was 14.2 MFI. For the same binder, the fluorescence intensity [19, 30] was 16 MFI, the fluorescence intensity [19, 31] was 14.5 MFI and the fluorescence intensity [19, 32] was 15.5 MFI. It also gave a fluorescence intensity [19, 25] of 18 MFI, a fluorescence intensity [19, 26] of 34.5 MFI and a fluorescence intensity [20, 27] of 22.5 MFI. For the same binder, the fluorescence intensity [20, 28] was 24 MFI, the fluorescence intensity [20, 29] was 24.8 MFI and the fluorescence intensity [20, 30] was 24.8 MFI. It also gave a fluorescence intensity [20, 31] of 25 MFI, a fluorescence intensity [20, 32] of 25.5 MFI and a fluorescence intensity [20, 25] of 29 MFI. For the same binder, the fluorescence intensity [20, 26] was 41.8 MFI, the fluorescence intensity [21, 27] was 21 MFI and the fluorescence intensity [21, 28] was 21 MFI. For the same binder, the fluorescence intensity [21, 29] was 20.5 MFI, the fluorescence intensity [21, 30] was 22 MFI and the fluorescence intensity [21, 31] was 22 MFI. It also gave a fluorescence intensity [21, 32] of 22 MFI, a fluorescence intensity [21, 25] of 22 MFI and a fluorescence intensity [21, 26] of 29.2 MFI. The fluorescence intensity [22, 27] was 26.5 MFI, the fluorescence intensity [22, 28] was 26.5 MFI and the fluorescence intensity [22, 29] was 26.5 MFI. It also gave a fluorescence intensity [22, 30] of 27.5 MFI, a fluorescence intensity [22, 31] of 26.5 MFI and a fluorescence intensity [22, 32] of 26.5 MFI. The fluorescence intensity [22, 25] was 27.2 MFI, the fluorescence intensity [22, 26] was 33.5 MFI and the fluorescence intensity [23, 27] was 24.5 MFI. The fluorescence intensity [23, 28] was 24 MFI, the fluorescence intensity [23, 29] was 23.5 MFI and the fluorescence intensity [23, 30] was 24.5 MFI. The fluorescence intensity [23, 31] was 24 MFI, the fluorescence intensity [23, 32] was 24 MFI and the fluorescence intensity [23, 25] was 26 MFI. It also gave a fluorescence intensity [23, 26] of 36.2 MFI, a fluorescence intensity [24, 27] of 30.5 MFI and a fluorescence intensity [24, 28] of 29.5 MFI.
